In patent US20160374944A1, “COMPOSITIONS AND METHODS FOR TREATING AND PREVENTING CANCER BY TARGETING AND INHIBITING CANCER STEM CELLS” (priority 2011, published 2016):
At least one compound was matched to its structure with a doubt left.

Key:
Prostate CSCs [1] = experiment: migration of CSCs; type: cell-based, human; settings: embelin 0-6 μM, 24 h
Prostate CSCs [2] = experiment: prostate CSCs xenografted sub-cutaneously in NSG mice; type: in vivo; settings: NOD/SCID/IL2R gamma mice, 20 mg/kg, 6 weeks
Method: (§1) (A) Pancreatic CSCs were orthotopically implanted in pancreas of NSG mice, and treated with or without sulforaphane 20 mg/kg, for 6 weeks, (B and C) Pancreatic CSCs were xenografted sub-cutaneously in NSG mice, and treated with or without rottlerin and embelin 20 mg/kg, for 6 weeks, (D and E) Prostate CSCs were xenografted sub-cutaneously in NSG mice, and treated with or without rottlerin and embelin 20 mg/kg, for 6 weeks. At the end of the treatment, weights of tumors in treated mice were compared with control mice.

[3] = system: Gli transcriptional activity in prostate CSCs; experiment: Gli-responsive GFP/firefly luciferase reporter (pGreen Fire1-Gli); type: cell-based, human; settings: embelin 0-6 μM, 24 h, luciferase assay
Pancreatic CSCs [4] = experiment: cell viability, trypan blue, Vi-CELL analyzer; type: cell-based, human; settings: 3 days
Method: Pancreatic CSCs were treated with resveratrol (0-20 μM), curcumin (0-20 μM), honokiol (0-20 μM) and diallyl trisulphide (0-20 μM) for 3 days, and cell viability was measured by staining with trypan blue using Vi-CELL analyzer (Beckman Counter).
Pancreatic CSCs were treated with sulforaphane (0-20 μM), rottlerin (0-2 μM), EGCG (0-60 μM) and embelin (0-5 μM) for 3 days, and cell viability was measured by staining with trypan blue using Vi-CELL analyzer (Beckman Counter).
(A) Pancreatic CSCs were treated with SAHA (3 and 5 μM) and 5-Aza-dc (2 and 4 μM) and cell viability was measured at 48 h by staining with trypan blue using Vi-CELL analyzer (Beckman Counter). (B) Pancreatic CSCs were untreated (a) or treated with SAHA (b) or 5-Aza-dC (c) for 48 h, and apoptosis was measured by staining with annexin-PI using Accuri Flow Cytometer. (C) Caspase-3/7 activity was measured in pancreatic CSCs treated with SAHA (0.5 and 2 μM) or 5-Aza-dC (1 and 3 μM) for 25 h.
Pancreatic CSCs were treated with resveratrol (0-20 μM), curcumin (0-20 μM), honokiol (0-20 μM), and diallyl trisulphide (0-20 μM) for 3 days and cell viability was measured by staining with trypan blue using Vi-CELL analyzer. […]
Pancreatic CSCs were treated with sulforaphane (0-20 μM), rottlerin (0-2 μM), EGCG (0-60 μM), and embelin (0-5 μM) for 3 days and cell viability was measured by staining with trypan blue using Vi-CELL analyzer. […]

Prostate CSCs [5] = experiment: spheroid formation and cell viability in spheroids (trypan blue); type: cell-based, human; settings: 7 and 14 days, embelin 0-6 μM, rottlerin 0-2 μM
Method: (§2) In particular, embelin is shown to inhibit spheroid and colony formation, and induce caspase-3 and apoptosis. (A) Prostate CSCs were grown in CSC medium and treated with embelin (0-6 μM) for 7 days to obtain primary spheroids. At the end of incubation period, spheroids were collected, reseeded and treated with embelin for another week to obtain secondary spheroids. Cell viability in spheroids was measured by trypan blue assay at the end of 7 and 14 days. […] (B) Prostate CSCs were seeded in soft agar and treated with embelin (0-6 μM) for 21 days. […] (C and D) Activation of caspase-3 and induction of apoptosis is shown.
as §2, with “(A)” for “In particular, embelin is shown to inhibit spheroid and colony formation, and induce caspase-3 and apoptosis. (A)”, “rottlerin (0-2” for “embelin (0-6”, “rottlerin” for “embelin”, “apoptosis.” for “apoptosis is shown.”
The effects of embelin on growth of prostate CSCs was studied by measuring cell viability and colony formation, as shown in FIGS. 9A and 9B. […]

Brain CSCs = experiment: cell viability, trypan blue, Vi-CELL analyzer; type: cell-based; settings: 48 h
Method: Brain CSCs were treated with resveratrol (0-20 μM), curcumin (0-20 μM), honokiol (0-20 μM) and diallyl trisulphide (0-10 μM) for 3 days, and cell viability was measured by staining with trypan blue using Vi-CELL analyzer (Beckman Counter).
Brain CSCs were treated with sulforaphane (0-20 μM), rottlerin (0-1 μM), EGCG (0-40 μM) and embelin (0-5 μM) for 48 h, and cell viability was measured by staining with trypan blue using Vi-CELL analyzer (Beckman Counter).
Brain CSCs were treated with resveratrol (0-20 μM), curcumin (0-20 μM) honokiol (0-20 μM), and diallyl trisulphide (0-10 μM) for 3 days and cell viability was measured by staining with trypan blue using Vi-CELL analyzer. The results of those studies are illustrated in FIG. 23.
Brain CSCs were treated with sulforaphane (0-20 μM), rottlerin (0-1 μM), EGCG (0-40 μM), and embelin (0-5 μM) for 48 hours and cell viability was measured by staining with trypan blue using Vi-CELL analyzer. The results of those studies are illustrated in FIG. 24.

Pancreatic CSCs [6] = experiment: pancreatic CSCs xenografted sub-cutaneously in NSG mice; type: in vivo; settings: NOD/SCID/IL2R gamma mice, 20 mg/kg, 6 weeks
Method: as §1

Breast CSCs = experiment: cell viability by XTT assay; type: cell-based; settings: 3 days
Method: Breast CSCs were seeded in 96-well plate and treated with sulforaphane, diallyl trisulphide, resveratrol and curcumin for 3 days. At the end of incubation period, CSCs were harvested and cell viability was measured by XTT assay.
Breast CSCs were seeded in 96-well plate and treated with rottlerin, EGCG, embelin, and honokiol for 3 days. At the end of incubation period, breast CSCs were harvested and cell viability was measured by XTT assay.
(A-D) Breast CSCs were treated with PITC (0-20 μM), BSC, (0-20 μM), sulforaphane (0-20 μM) and honokiol (0-10 μM) for 3 days, and cell viability was measured by XTT assay.
Breast CSCs were treated with rottlerin (0-1 μM) for 3 days, and cell viability was measured by XTT assay.
Breast CSCs were seeded in 96-well plate and treated with sulforaphane, diallyl trisulphide, resveratrol, and curcumin for 3 days and cell viability was measured by XTT assay. The results of those studies are illustrated in FIG. 29.
Breast CSCs were seeded in 96-well plate and treated with Rottlerin, EGCG, embelin, and honokiol for 3 days and cell viability was measured by XTT assay. The results of those studies are illustrated in FIG. 30.

Prostate CSCs [7] = experiment: colony formation in soft agar; type: cell-based, human; settings: 21 days; embelin 0-6 μM, rottlerin 0-2 μM
Method: as §2
as §2, with “(A)” for “In particular, embelin is shown to inhibit spheroid and colony formation, and induce caspase-3 and apoptosis. (A)”, “rottlerin (0-2” for “embelin (0-6”, “rottlerin” for “embelin”, “apoptosis.” for “apoptosis is shown.”

Prostate CSCs [8] = experiment: cell viability, trypan blue, Vi-CELL analyzer; type: cell-based, human; settings: 3 days
Method: Prostate CSCs were treated with resveratrol (0-20 μM), curcumin (0-20 μM), honokiol (0-20 μM) and diallyl trisulphide (0-10 μM) for 3 days, and cell viability was measured by staining with trypan blue using Vi-CELL analyzer (Beckman Counter).
Prostate CSCs were treated with sulforaphane (0-20 μM), rottlerin (0-5 μM), EGCG (0-40 μM) and embelin (0-1 μM) for 3 days, and cell viability was measured by staining with trypan blue using Vi-CELL analyzer (Beckman Counter).
Prostate CSCs were treated with resveratrol (0-20 μM), curcumin (0-20 μM), honokiol (0-20 μM), and diallyl trisulphide (0-10 μM) for 3 days and cell viability was measured by staining with trypan blue using Vi-CELL analyzer. The results of those studies are illustrated in FIG. 25.
Prostate CSCs were treated with sulforaphane (0-20 μM), rottlerin (0-5 μM), EGCG (0-40 μM), and embelin (0-1 μM) for 3 days and cell viability was measured by staining with trypan blue using Vi-CELL analyzer. The results of those studies are illustrated in FIG. 26.

Prostate CSCs [9] = experiment: apoptosis; type: cell-based, human; settings: embelin 0-6 μM 48 h; rottlerin 0-2 μM 24 h
Method: as §2
as §2, with “(A)” for “In particular, embelin is shown to inhibit spheroid and colony formation, and induce caspase-3 and apoptosis. (A)”, “rottlerin (0-2” for “embelin (0-6”, “rottlerin” for “embelin”, “apoptosis.” for “apoptosis is shown.”

Prostate CSCs [10] = experiment: caspase-3 activity; type: cell-based, human; settings: 24 h; embelin 0-6 μM, rottlerin 0-2 μM
Method: as §2
as §2, with “(A)” for “In particular, embelin is shown to inhibit spheroid and colony formation, and induce caspase-3 and apoptosis. (A)”, “rottlerin (0-2” for “embelin (0-6”, “rottlerin” for “embelin”, “apoptosis.” for “apoptosis is shown.”

Prostate CSCs [11] = experiment: gene expression by qRT-PCR; type: cell-based, human; settings: 24 h
Method: FIG. 15 is a graph showing that rottlerin inhibits the expression of survivin, XIAP, Bcl-2 and Bcl-XL in prostate CSCs. Prostate CSCs were treated with rottlerin (0-2 μM) for 24 h, and the expression of survivin, XIAP, Bcl-2 and Bcl-XL was measured by the q-RT-PCR. […] Data were normalized with GAPDH.
FIG. 16 is a graph showing the regulation by rottlerin of cMyc, Nanog, Oct3/4 and Sox-2 in prostate CSCs. Prostate CSCs were treated with rottlerin (0-1 μM) for 24 h. The expression of cMyc, Nanog, Oct3/4 and Sox-2 was measured by qRT-PCR. […] Data were normalized with GAPDH.
FIG. 17 graphs showing the regulation of Shh, Notch and TGFβ pathways by rottlerin. […] The expression of Patched-1, Patched-2, SMO, Gli1 and Gli2 was measured by qRT-PCR. […] Data were normalized with GAPDH. (D) Prostate CSCs were treated with rottlerin (0-1 μM) for 24 h. The expression of Notch1, Notch3 and JAG1 was measured by qRT-PCR. (E) TCF/LEF-1, Gli and Notch reporter activities. Prostate CSCs were transduced with a mixture of TCF/LEF1-, Gli-, or Notch-responsive firefly luciferase construct and Renilla luciferase construct (40:1) along with lipofectamine. After transduction, medium was changed and CSCs were treated with rottlerin (0-2 μM) for 24 h. […] (F) Immunofluorescence analysis of Gli1 and Gli2 expression in prostate CSCs. Green=Gli1 or Gli2; red=nucleus.

Prostate CSCs [12] = experiment: invasion of CSCs; type: cell-based, human; settings: embelin 0-6 μM, 24 h

Structure (SMILES): CCCCCCCCCCCC1=C(O)C(=O)C=C(O)C1=O [embelin]
- CSC migration (Prostate CSCs [1]): inhibited
- tumor growth (weights of tumors vs control mice) (Prostate CSCs [2]): inhibit tumor growth
- Gli transcriptional activity [3]: inhibited Gli transcriptional activity in a dose-dependent manner
- cell viability (Pancreatic CSCs [4]): inhibit cell viability
- size of primary and secondary spheroids in suspension (Prostate CSCs [5]; data not shown): inhibited the size
- cell viability in spheroids (Prostate CSCs [5]; primary and secondary spheroids, trypan blue): inhibited
- cell viability (Brain CSCs): inhibit cell viability
- tumor growth (weights of tumors vs control mice) (Pancreatic CSCs [6]): inhibit tumor growth
- cell viability (Breast CSCs): inhibit cell viability
- colony formation in soft agar (Prostate CSCs [7]): inhibited
- cell viability (Prostate CSCs [8]): inhibit cell viability
- apoptosis (Prostate CSCs [9]): induce
- caspase-3 activity (Prostate CSCs [10]): induce
- expression of Bcl-2 (Prostate CSCs [11]; normalized with GAPDH): inhibited the expression
- expression of Gli1 (Prostate CSCs [11]; normalized with GAPDH): inhibited the expression
- expression of Gli2 (Prostate CSCs [11]; normalized with GAPDH): inhibited the expression
- expression of Nanog (Prostate CSCs [11]; normalized with GAPDH): inhibited the expression
- expression of Oct3/4 (Prostate CSCs [11]; normalized with GAPDH): inhibited the expression
- expression of Patched-1 (Prostate CSCs [11]; normalized with GAPDH): inhibited the expression
- expression of Patched-2 (Prostate CSCs [11]; normalized with GAPDH): inhibited the expression
- expression of SMO (Prostate CSCs [11]; normalized with GAPDH): inhibited the expression
- expression of XIAP (Prostate CSCs [11]; normalized with GAPDH): inhibited the expression
- expression of survivin (Prostate CSCs [11]; normalized with GAPDH): inhibited the expression
- expression of N-cadherin (Prostate CSCs [11]; embelin 0-6 μM): inhibited
- expression of Snail (Prostate CSCs [11]; embelin 0-6 μM): inhibited
- CSC invasion (Prostate CSCs [12]): inhibited
